Source: publication PMC12109978
These are yes or no findings as the source states them, for the method shown. One block for each binder: values may come before it.

What was measured:
[1] = biological target: human tropomodulin 4 (Tmod4) (human) (UniProt Q9NZQ9); assay: SEC; Superose 6 Increase 10/300 GL, 50 mM HEPES-Na pH 7.3, 150 mM NaCl, 1 mM DTT, 0.5 mL/min, 280 nm; 30 µM Tpm and Tmod1, or 26 µM Tpm and 13 µM Tmod4; single proteins and mixtures; both purified
[2] = biological target: T1, human tropomodulin 1 (Tmod1) (human), P28289; assay: as above; conditions: remark: other sources report otherwise
T1 chain: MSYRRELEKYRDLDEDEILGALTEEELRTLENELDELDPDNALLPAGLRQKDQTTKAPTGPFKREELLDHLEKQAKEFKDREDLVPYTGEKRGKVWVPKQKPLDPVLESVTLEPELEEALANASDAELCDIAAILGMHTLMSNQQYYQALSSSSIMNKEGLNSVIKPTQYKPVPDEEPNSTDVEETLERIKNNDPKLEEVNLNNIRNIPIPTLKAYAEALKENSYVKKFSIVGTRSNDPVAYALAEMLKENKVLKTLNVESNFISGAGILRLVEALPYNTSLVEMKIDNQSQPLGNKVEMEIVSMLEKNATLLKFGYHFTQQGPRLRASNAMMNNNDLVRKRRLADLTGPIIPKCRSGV

binding [1]: no binding (tested: 13 µM)
B1: human tropomodulin 4 (Tmod4) (protein, UniProt Q9NZQ9 1-345)
chain: MSSYQKELEKYRDIDEDEILRTLSPEELEQLDCELQEMDPENMLLPAGLRQRDQTKKSPTGPLDREALLQYLEQQALEVKERDDLVPFTGEKKGKPYIQPKREIPAEEQITLEPELEEALAHATDAEMCDIAAILDMYTLMSNKQYYDALCSGEICNTEGISSVVQPDKYKPVPDEPPNPTNIEEILKRVRSNDKELEEVNLNNIQDIPIPMLSELCEAMKANTYVRSFSLVATRSGDPIANAVADMLRENRSLQSLNIESNFISSTGLMAVLKAVRENATLTELRVDNQRQWPGDAVEMEMATVLEQCPSIVRFGYHFTQQGPRARAAQAMTRNNELRRQQKKR

binding [2]: no binding (tested: 30 µM)
B2: human tropomodulin 1 (Tmod1), P28289 1-359 (protein)
chain: T1 chain
